Data reported in US20060257938A1, “Method of screening for drugs that block ligand binding to a lipid binding protein” (priority 2005, published 2006).
Several values for one entry are separate records, joined by “and”; a condition that tells them apart may be missing. Identical values can stand only once.

Test: Baseline fluorescence ratio Ro of probe in absence of analyte
Details: baseline fluorescence ratio of probe

Molecule	Ro (no fatty acid)	Ro
40M, 72A (protein, listed as Rattus norvegicus, PEPTIDE (1)...(131) wild-type rat intestinal fatty acid binding protein) AFDGTWKVDRNENYEKFMEKMGINVVKRKLGAHDNLKLTMTQEGNKFTVKESSNFRNIDVVFELGVDFAYSAADGTELTGTWTMEGNKLVGKFKRVDNGKELIAVREISGNELIQTYTYEGVEAKRIFKKE	0.195	–
14W 18L 117S 72A (protein, listed as Rattus norvegicus, PEPTIDE (1)...(131) wild-type rat intestinal fatty acid binding protein) AFDGTWKVDRNENWEKFLEKMGINVVKRKLGAHDNLKLTITQEGNKFTVKESSNFRNIDVVFELGVDFAYSAADGTELTGTWTMEGNKLVGKFKRVDNGKELIAVREISGNELIQTSTYEGVEAKRIFKKE	0.228	–
115W, 72A (protein, listed as Rattus norvegicus, PEPTIDE (1)...(131) wild-type rat intestinal fatty acid binding protein) AFDGTWKVDRNENYEKFMEKMGINVVKRKLGAHDNLKLTITQEGNKFTVKESSNFRNIDVVFELGVDFAYSAADGTELTGTWTMEGNKLVGKFKRVDNGKELIAVREISGNELIWTYTYEGVEAKRIFKKE	–	0.367
40V, 72A (protein, listed as Rattus norvegicus, PEPTIDE (1)...(131) wild-type rat intestinal fatty acid binding protein) AFDGTWKVDRNENYEKFMEKMGINVVKRKLGAHDNLKLTVTQEGNKFTVKESSNFRNIDVVFELGVDFAYSAADGTELTGTWTMEGNKLVGKFKRVDNGKELIAVREISGNELIQTYTYEGVEAKRIFKKE	0.164	–
126K, 72A (protein, listed as Rattus norvegicus, PEPTIDE (1)...(131) wild-type rat intestinal fatty acid binding protein) AFDGTWKVDRNENYEKFMEKMGINVVKRKLGAHDNLKLTITQEGNKFTVKESSNFRNIDVVFELGVDFAYSAADGTELTGTWTMEGNKLVGKFKRVDNGKELIAVREISGNELIQTYTYEGVEAKKIFKKE	0.455	–
38G, 72A (protein, listed as Rattus norvegicus, PEPTIDE (1)...(131) wild-type rat intestinal fatty acid binding protein) AFDGTWKVDRNENYEKFMEKMGINVVKRKLGAHDNLKGTITQEGNKFTVKESSNFRNIDVVFELGVDFAYSAADGTELTGTWTMEGNKLVGKFKRVDNGKELIAVREISGNELIQTYTYEGVEAKRIFKKE	0.301	–
18K, 72A (protein, listed as Rattus norvegicus, PEPTIDE (1)...(131) wild-type rat intestinal fatty acid binding protein) AFDGTWKVDRNENYEKFKEKMGINVVKRKLGAHDNLKLTITQEGNKFTVKESSNFRNIDVVFELGVDFAYSAADGTELTGTWTMEGNKLVGKFKRVDNGKELIAVREISGNELIQTYTYEGVEAKRIFKKE	0.359	–
70H, 72A (protein, listed as Rattus norvegicus, PEPTIDE (1)...(131) wild-type rat intestinal fatty acid binding protein) AFDGTWKVDRNENYEKFMEKMGINVVKRKLGAHDNLKLTITQEGNKFTVKESSNFRNIDVVFELGVDFAHSAADGTELTGTWTMEGNKLVGKFKRVDNGKELIAVREISGNELIQTYTYEGVEAKRIFKKE	0.374	–
72A 117A (protein, listed as Rattus norvegicus, PEPTIDE (1)...(131) wild-type rat intestinal fatty acid binding protein) AFDGTWKVDRNENYEKFMEKMGINVVKRKLGAHDNLKLTITQEGNKFTVKESSNFRNIDVVFELGVDFAYSAADGTELTGTWTMEGNKLVGKFKRVDNGKELIAVREISGNELIQTATYEGVEAKRIFKKE	–	0.273
106F, 72A (protein, listed as Rattus norvegicus, PEPTIDE (1)...(131) wild-type rat intestinal fatty acid binding protein) AFDGTWKVDRNENYEKFMEKMGINVVKRKLGAHDNLKLTITQEGNKFTVKESSNFRNIDVVFELGVDFAYSAADGTELTGTWTMEGNKLVGKFKRVDNGKELIAVFEISGNELIQTYTYEGVEAKRIFKKE	0.294	–
70S, 72A (protein, listed as Rattus norvegicus, PEPTIDE (1)...(131) wild-type rat intestinal fatty acid binding protein) AFDGTWKVDRNENYEKFMEKMGINVVKRKLGAHDNLKLTITQEGNKFTVKESSNFRNIDVVFELGVDFASSAADGTELTGTWTMEGNKLVGKFKRVDNGKELIAVREISGNELIQTYTYEGVEAKRIFKKE	0.422	–
70W, 72A (protein, listed as Rattus norvegicus, PEPTIDE (1)...(131) wild-type rat intestinal fatty acid binding protein) AFDGTWKVDRNENYEKFMEKMGINVVKRKLGAHDNLKLTITQEGNKFTVKESSNFRNIDVVFELGVDFAWSAADGTELTGTWTMEGNKLVGKFKRVDNGKELIAVREISGNELIQTYTYEGVEAKRIFKKE	0.388	–
18L 73V 72A (protein, listed as Rattus norvegicus, PEPTIDE (1)...(131) wild-type rat intestinal fatty acid binding protein) AFDGTWKVDRNENYEKFLEKMGINVVKRKLGAHDNLKLTITQEGNKFTVKESSNFRNIDVVFELGVDFAYSAVDGTELTGTWTMEGNKLVGKFKRVDNGKELIAVREISGNELIQTYTYEGVEAKRIFKKE	0.364	0.364 and 0.455
14L 18L 31L 73G 117V 72A (protein, listed as Rattus norvegicus, PEPTIDE (1)...(131) wild-type rat intestinal fatty acid binding protein) AFDGTWKVDRNENLEKFLEKMGINVVKRKLLAHDNLKLTITQEGNKFTVKESSNFRNIDVVFELGVDFAYSAGDGTELTGTWTMEGNKLVGKFKRVDNGKELIAVREISGNELIQTVTYEGVEAKRIFKKE	0.440	0.440
91Y, 72A (protein, listed as Rattus norvegicus, PEPTIDE (1)...(131) wild-type rat intestinal fatty acid binding protein) AFDGTWKVDRNENYEKFMEKMGINVVKRKLGAHDNLKLTITQEGNKFTVKESSNFRNIDVVFELGVDFAYSAADGTELTGTWTMEGNKLVYKFKRVDNGKELIAVREISGNELIQTYTYEGVEAKRIFKKE	0.307	–
38V 62V 117A 72A (protein, listed as Rattus norvegicus, PEPTIDE (1)...(131) wild-type rat intestinal fatty acid binding protein) AFDGTWKVDRNENYEKFMEKMGINVVKRKLGAHDNLKVTITQEGNKFTVKESSNFRNIDVVVELGVDFAYSAADGTELTGTWTMEGNKLVGKFKRVDNGKELIAVREISGNELIQTATYEGVEAKRIFKKE	0.325	–
91C, 72A (protein, listed as Rattus norvegicus, PEPTIDE (1)...(131) wild-type rat intestinal fatty acid binding protein) AFDGTWKVDRNENYEKFMEKMGINVVKRKLGAHDNLKLTITQEGNKFTVKESSNFRNIDVVFELGVDFAYSAADGTELTGTWTMEGNKLVCKFKRVDNGKELIAVREISGNELIQTYTYEGVEAKRIFKKE	0.334	–
38H, 72A (protein, listed as Rattus norvegicus, PEPTIDE (1)...(131) wild-type rat intestinal fatty acid binding protein) AFDGTWKVDRNENYEKFMEKMGINVVKRKLGAHDNLKHTITQEGNKFTVKESSNFRNIDVVFELGVDFAYSAADGTELTGTWTMEGNKLVGKFKRVDNGKELIAVREISGNELIQTYTYEGVEAKRIFKKE	0.204	0.204
18G 31W 73V 72A (protein, listed as Rattus norvegicus, PEPTIDE (1)...(131) wild-type rat intestinal fatty acid binding protein) AFDGTWKVDRNENYEKFGEKMGINVVKRKLWAHDNLKLTITQEGNKFTVKESSNFRNIDVVFELGVDFAYSAVDGTELTGTWTMEGNKLVGKFKRVDNGKELIAVREISGNELIQTYTYEGVEAKRIFKKE	0.232	–
55L, 72A (protein, listed as Rattus norvegicus, PEPTIDE (1)...(131) wild-type rat intestinal fatty acid binding protein) AFDGTWKVDRNENYEKFMEKMGINVVKRKLGAHDNLKLTITQEGNKFTVKESSNLRNIDVVFELGVDFAYSAADGTELTGTWTMEGNKLVGKFKRVDNGKELIAVREISGNELIQTYTYEGVEAKRIFKKE	0.155	0.155
14L 18I 31L 73F 117A 72A (protein, listed as Rattus norvegicus, PEPTIDE (1)...(131) wild-type rat intestinal fatty acid binding protein) AFDGTWKVDRNENLEKFIEKMGINVVKRKLLAHDNLKLTITQEGNKFTVKESSNFRNIDVVFELGVDFAYSAFDGTELTGTWTMEGNKLVGKFKRVDNGKELIAVREISGNELIQTATYEGVEAKRIFKKE	0.255	0.255
106H, 72A (protein, listed as Rattus norvegicus, PEPTIDE (1)...(131) wild-type rat intestinal fatty acid binding protein) AFDGTWKVDRNENYEKFMEKMGINVVKRKLGAHDNLKLTITQEGNKFTVKESSNFRNIDVVFELGVDFAYSAADGTELTGTWTMEGNKLVGKFKRVDNGKELIAVHEISGNELIQTYTYEGVEAKRIFKKE	0.279	–
106I, 72A (protein, listed as Rattus norvegicus, PEPTIDE (1)...(131) wild-type rat intestinal fatty acid binding protein) AFDGTWKVDRNENYEKFMEKMGINVVKRKLGAHDNLKLTITQEGNKFTVKESSNFRNIDVVFELGVDFAYSAADGTELTGTWTMEGNKLVGKFKRVDNGKELIAVIEISGNELIQTYTYEGVEAKRIFKKE	0.291	–
